Experimental data reported in PubChem BioAssay AID2685 (National Center for Advancing Translational Sciences (NCATS), 2010).
The other results are listed elsewhere or left out. Shown are side measurements of this screen, not its main read-out; they come without a call. Compounds called inactive in the main read-out are mostly missing here. The note in brackets gives the kind of curve behind each potency; many fits are weak.

Assay: qHTS Assay for Lipid Storage Modulators in Drosophila S3 Cells;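 as to cell number change: cells counted by Cell Tracker Red CMTPX staining in the red channel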
Details: BODIPY lipid droplet fluorescence, 18-24 h; for cell number change: measured here: cell count max response, cells fed with added oleic acid
Procedure, shortened: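 Drosophila S3 cells got compounds at several concentrations plus oleic acid (400 uM solution). Laser-scanning cytometry with 488 nm excitation read lipid droplets at 500-530 nm and cells at 575-640 nm. Percent activity was relative to 20 uM Triacsin C.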

[1] = measured here: cell number channel AC50, cells fed with added oleic acid
[2] = measured here: lipid fluorescence (Fed channel) AC50, cells fed with added oleic acid

| SMILES | cell number change [%] | AC50 [1] | AC50 [2] |
| --- | --- | --- | --- |
| Cn1c(=O)cc(OCC(=O)NCCc2ccc(Cl)cc2)c2ccccc21 | 58.7 | 9.2 µM [rising, partial curve, poor fit] | 23.1 µM [rising, single point] |
| Cc1cccc(NC(=O)CCn2c(=O)oc3ccccc32)c1 | -5.88 |  |  |
| Cc1cc(C)c(S(=O)(=O)N2CCN(CCO)CC2)c(C)c1 | -64.1 | 7.31 µM [falling, partial curve] | 5.8 µM [falling, full curve] |
| COC(=O)Nc1ccc(S(=O)(=O)N2CCCC(C(=O)NC3CCCCC3)C2)cc1 (stereo unspecified) |  |  | 29.1 µM [rising, single point] |
| CN(Cc1ccccc1)C(=O)CCn1c(=O)c2cccn2c2cccnc21 |  |  | 29.1 µM [falling, single point] |
| CC(=O)c1sc(=S)n(-c2ccc(Cl)cc2)c1C | 18 |  | 20.6 µM [rising, single point] |
| O=[N+]([O-])c1ccc(N2CCCC2)cc1NC(c1ccccc1)c1ccccc1 |  |  | 0.461 µM [rising, full curve, poor fit] |
| COc1ccccc1CNC(=O)COC(=O)c1cccnc1SCC(=O)NCc1ccccc1OC | 22.7 | 3.26 µM [rising, full curve, poor fit] | 2.59 µM [rising, single point] |
| COC(=O)CCC(=O)OC1(C)C(=O)C2=CN(CCCOC(C)C)C(c3ccc(OC)cc3)=CC2=C(Br)C1=O (stereo unspecified) | 0.997 |  |  |
| Cc1c(O)c(CN2CCCC2)cc2c3c(c(=O)oc12)CCC3 |  | 5.8 µM [rising, single point] |  |
| Cc1cc(C)n(-c2nc3ccccc3c(=O)n2OCC#N)n1 | -35.2 | 0.00461 µM [falling, full curve, poor fit] | 0.259 µM [falling, partial curve, poor fit] |
| COc1ccc(OC)c(/C=C/C(=O)OCC(=O)NCc2cccs2)c1 | 3.11 |  | 0.411 µM [rising, full curve, poor fit] |
| O=C(CN(C(=O)c1csnn1)c1cccc2ccccc12)NCc1ccccc1 | -3.81 |  |  |
| COc1ccc2nc(NC(=O)Cn3cnc4c(=O)n(C)c(=O)n(C)c43)sc2c1 |  |  | 0.58 µM [falling, single point] |
| N#Cc1c2c(c(Nc3ccccc3)n3c1nc1ccccc13)CCC2 | -91 | 23.1 µM [falling, partial curve] | 20.6 µM [falling, partial curve, poor fit] |
| COc1cccc(NC(=O)C2C3C=CC(C3)C2C(=O)O)c1 (stereo unspecified) | 15.8 | 0.00461 µM [rising, full curve, poor fit] | 29.1 µM [falling, single point] |
| COc1ccc(/C=C/C(=O)NC2CCCCCCC2)cc1S(=O)(=O)N1CCOCC1 | -1.08 |  |  |
| Cc1ccc(SCC(=O)N=C2NC(=O)CS2)cc1 | -3.17 |  | 3.66 µM [falling, single point] |
| Cc1ccc(C)c(NC(=O)CN(C)C(=O)c2ccc(Cl)nc2)c1 | 17.1 |  |  |

| SMILES | cell number change [%] | AC50 [1] | AC50 [2] |
| --- | --- | --- | --- |
| Clc1cccc(-c2nnc(-c3ccno3)o2)c1 | 9.51 |  | 0.291 µM [rising, full curve, poor fit] |
| COc1ccc(C2=CC(c3ccc(OC)c(OC)c3)NC(=S)N2)cc1 (stereo unspecified) | -6.29 |  | 0.326 µM [rising, partial curve] |
| CCOC(=O)C1=C(COC(=O)CSc2ccc(C)cc2)NC(=O)NC1C (stereo unspecified) | -0.778 |  |  |
| Cc1cc(C)n2ncc(C(=O)NCCc3ccccc3)c2n1 | 77.7 | 14.6 µM [rising, partial curve, poor fit] | 0.58 µM [rising, partial curve, poor fit] |
| O=C(COC(=O)c1ccccc1NC(=O)c1ccco1)NC1CCCCC1 | 46.8 |  | 0.461 µM [rising, full curve] |
| Cc1oc(-c2ccccc2)cc1C(=O)Nc1ccccc1 | -4.06 |  | 2.59 µM [rising, partial curve] |
| O=C1C(Cl)=C(N2CCCCCC2)C(=O)N1c1ccc(Br)cc1 | -0.739 |  | 16.4 µM [falling, single point] |
| CC(C)CN(CCCNC(=O)CN1C(=O)COc2ccc(S(=O)(=O)N3CCOCC3)cc21)CC(C)C | 2.65 |  | 2.31 µM [falling, partial curve] |
| Cc1cc(C(=O)NC(C)C2CCCO2)no1 (stereo unspecified) | -43.6 | 29.1 µM [falling, single point] | 29.1 µM [falling, single point] |
| CCCCC(=O)NC1=C(C(=O)OC)SCC1 | -21 |  |  |
| CC(=O)c1ccc(NC(=O)c2cnn3ccccc23)cc1 |  |  | 0.92 µM [rising, full curve, poor fit] |
| O=C1CCC(=O)N1CC(=O)N1CCCc2ccccc21 | -21.9 |  | 0.206 µM [falling, single point] |
| CCOC1=C/C(=C/c2c(N)n3oc(C)cc3nc2=O)C=CC1=O | -57 | 25.9 µM [falling, single point] | 25.9 µM [falling, partial curve, poor fit] |
| O=C1CCC([N+](=O)[O-])C(c2ccccc2Br)N1 (stereo unspecified) | -8.84 |  | 3.26 µM [rising, full curve] |
| COc1ccc(OC)c(NC(=O)c2ccccc2NC(=O)c2ccco2)c1 | -2.74 |  | 4.11 µM [rising, partial curve, poor fit] |
| Cc1c(C(=O)N2CCCCC2CCN2CCCC2=O)oc2c(F)cccc12 (stereo unspecified) | 40.5 | 29.1 µM [rising, single point] |  |
| Nc1nc(SCC(=O)NCc2ccccc2Cl)[nH]c(=O)c1NC(=O)c1ccccc1F | 8.45 |  | 3.26 µM [rising, partial curve, poor fit] |
| COc1ccc(-n2cnnc2)cc1 | 18.1 |  |  |
| COC(=O)NC(NC(=S)Nc1cccc(C)c1)C(Cl)(Cl)Cl (stereo unspecified) | 6.68 |  | 6.51 µM [falling, single point] |

| SMILES | cell number change [%] | AC50 [1] | AC50 [2] |
| --- | --- | --- | --- |
| COc1ccc(Nc2nnc(SCC(=O)c3cc(C)n(CC4CCCO4)c3C)s2)cc1 (stereo unspecified) | 11.7 | 2.06 µM [rising, partial curve] | 6.51 µM [rising, partial curve, poor fit] |
| NS(=O)(=O)c1ccc(-c2ccc(/C=N/Nc3ccc(C(=O)O)cc3)o2)cc1 | 37.5 | 2.06 µM [rising, single point] |  |
| CCOC(=O)c1oc2c(C)c(O)ccc2c(=O)c1-c1nncn1-c1ccccc1 | -5.5 |  | 29.1 µM [rising, single point] |
| O=C(Cc1ccc(Cl)cc1)Nc1ccccc1C(=O)N1CCCCC1 | -18.5 | 7.31 µM [falling, partial curve, poor fit] |  |
| COC(=O)c1c(C)n(-c2ccc(C)cc2)c2ccc(O)cc12 |  | 6.51 µM [falling, single point] | 6.51 µM [falling, single point] |
| Cc1cccc(C)c1Nc1nnc(SCc2cc([N+](=O)[O-])cc3c2OCOC3)s1 | 89.5 | 5.8 µM [rising, full curve] | 6.51 µM [rising, single point] |
| Cc1c(C(=O)N2CCN(Cc3cccs3)CC2)oc2ccccc12 | -26.1 |  | 3.26 µM [falling, partial curve] |
| CCOc1cc2c(Cl)ncnc2c(OCC)c1OCC | -7.62 | 6.51 µM [falling, single point] | 6.51 µM [falling, single point] |
| C/C(CC(=O)Nc1cc(Cl)ccc1Cl)=N\NC(=O)COc1cccc(C)c1 | 10.5 |  | 15.8 µM [falling, single point] |
| CCc1ccc2[nH]c(=O)c(CN(Cc3ccco3)S(=O)(=O)c3ccc4c(c3)OCCO4)cc2c1 | 0.55 |  | 6.51 µM [rising, partial curve] |
| Clc1ccccc1C(c1ccccc1)(c1ccccc1)n1ccnc1 | 40.7 | 29.1 µM [rising, single point] | 29.1 µM [rising, single point] |
| Cc1nc2ccccn2c1/C(O)=C1\C(=O)C(=O)N(CCN2CCOCC2)C1c1ccncc1 (stereo unspecified) | -31.7 | 0.00461 µM [falling, full curve, poor fit] | 0.00461 µM [falling, full curve, poor fit] |
| Cc1cccc2cc(C(c3nnnn3Cc3ccc4c(c3)OCO4)N3CCCC3)c(=O)[nH]c12 (stereo unspecified) | 51 | 0.366 µM [rising, full curve] | 0.58 µM [rising, full curve] |
| Cc1cccc(Nc2nnc(-c3ccc(N4CCOCC4)c([N+](=O)[O-])c3)c3ccccc23)c1 | -32.1 | 1.03 µM [falling, full curve, poor fit] | 0.116 µM [falling, full curve] |
| CN(C)CCNC(=O)COc1ccc(Cl)cc1Cl | -28.9 | 0.0058 µM [falling, full curve, poor fit] |  |
| COc1ccc(OC)c(/C=C/c2nc3ccccc3[nH]c2=O)c1 | 381 | 18.4 µM [rising, partial curve] |  |
| Cc1cccc(C)c1OCc1cc(C(=O)N2CCN3CCCC3C2)no1 (stereo unspecified) | 9.63 |  | 6.51 µM [rising, single point] |
| Cc1cc(C)cc(Oc2ccc(NC(=O)C3CC=CCC3C(=O)O)cc2)c1 (stereo unspecified) | 10.2 |  | 29.1 µM [falling, partial curve, poor fit] |
| CN(C)CCN(C(=O)c1ccco1)c1nc2cc3c(cc2s1)OCCO3 | 9.27 |  | 29.1 µM [rising, single point] |

For convenience, part of the list above.

| SMILES | cell number change [%] | AC50 [1] | AC50 [2] |
| --- | --- | --- | --- |
| NS(=O)(=O)c1ccc(-c2ccc(/C=N/Nc3ccc(C(=O)O)cc3)o2)cc1 | 37.5 | 2.06 µM [rising, single point] |  |
| CCOC(=O)c1oc2c(C)c(O)ccc2c(=O)c1-c1nncn1-c1ccccc1 | -5.5 |  | 29.1 µM [rising, single point] |
| O=C(Cc1ccc(Cl)cc1)Nc1ccccc1C(=O)N1CCCCC1 | -18.5 | 7.31 µM [falling, partial curve, poor fit] |  |
